Some of the results follow.
Compound: Cc1cc(ccc1-c1ccccc1)C(=O)N1CCCN(CC1)C(=O)CCl [compound 10]
Experiment: probe-labelled cysteine peptide fold change vs DMSO (competition) (log2 fold change); higher = less target engagement (more negative = stronger competition)
Settings: THP-1, incubation time: 4 h
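Also: competitive profiling in live THP-1 cells: cysteine peptides tagged with an iodoacetamide desthiobiotin (IA-DTB) probe, intensity after compound treatment relative to DMSO-treated cells.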

The chains behind the UniProt entries cited, without tags or fusion partners. Where a name states a change or a piece, a line headed by the entry shows the natural chain unless it says otherwise.
UniProt Q8TED0: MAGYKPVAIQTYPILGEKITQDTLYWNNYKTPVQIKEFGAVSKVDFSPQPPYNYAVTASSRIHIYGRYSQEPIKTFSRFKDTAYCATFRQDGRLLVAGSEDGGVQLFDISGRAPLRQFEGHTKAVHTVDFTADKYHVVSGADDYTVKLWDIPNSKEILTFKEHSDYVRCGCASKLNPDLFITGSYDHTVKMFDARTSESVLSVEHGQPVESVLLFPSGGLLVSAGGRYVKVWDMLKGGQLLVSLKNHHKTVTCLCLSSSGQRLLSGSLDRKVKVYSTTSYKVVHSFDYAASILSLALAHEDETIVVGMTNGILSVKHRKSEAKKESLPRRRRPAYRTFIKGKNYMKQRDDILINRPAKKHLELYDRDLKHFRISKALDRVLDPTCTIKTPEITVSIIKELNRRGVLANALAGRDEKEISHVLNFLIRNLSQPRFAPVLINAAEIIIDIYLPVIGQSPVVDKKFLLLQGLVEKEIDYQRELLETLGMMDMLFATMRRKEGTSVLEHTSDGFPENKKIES
UniProt P26640: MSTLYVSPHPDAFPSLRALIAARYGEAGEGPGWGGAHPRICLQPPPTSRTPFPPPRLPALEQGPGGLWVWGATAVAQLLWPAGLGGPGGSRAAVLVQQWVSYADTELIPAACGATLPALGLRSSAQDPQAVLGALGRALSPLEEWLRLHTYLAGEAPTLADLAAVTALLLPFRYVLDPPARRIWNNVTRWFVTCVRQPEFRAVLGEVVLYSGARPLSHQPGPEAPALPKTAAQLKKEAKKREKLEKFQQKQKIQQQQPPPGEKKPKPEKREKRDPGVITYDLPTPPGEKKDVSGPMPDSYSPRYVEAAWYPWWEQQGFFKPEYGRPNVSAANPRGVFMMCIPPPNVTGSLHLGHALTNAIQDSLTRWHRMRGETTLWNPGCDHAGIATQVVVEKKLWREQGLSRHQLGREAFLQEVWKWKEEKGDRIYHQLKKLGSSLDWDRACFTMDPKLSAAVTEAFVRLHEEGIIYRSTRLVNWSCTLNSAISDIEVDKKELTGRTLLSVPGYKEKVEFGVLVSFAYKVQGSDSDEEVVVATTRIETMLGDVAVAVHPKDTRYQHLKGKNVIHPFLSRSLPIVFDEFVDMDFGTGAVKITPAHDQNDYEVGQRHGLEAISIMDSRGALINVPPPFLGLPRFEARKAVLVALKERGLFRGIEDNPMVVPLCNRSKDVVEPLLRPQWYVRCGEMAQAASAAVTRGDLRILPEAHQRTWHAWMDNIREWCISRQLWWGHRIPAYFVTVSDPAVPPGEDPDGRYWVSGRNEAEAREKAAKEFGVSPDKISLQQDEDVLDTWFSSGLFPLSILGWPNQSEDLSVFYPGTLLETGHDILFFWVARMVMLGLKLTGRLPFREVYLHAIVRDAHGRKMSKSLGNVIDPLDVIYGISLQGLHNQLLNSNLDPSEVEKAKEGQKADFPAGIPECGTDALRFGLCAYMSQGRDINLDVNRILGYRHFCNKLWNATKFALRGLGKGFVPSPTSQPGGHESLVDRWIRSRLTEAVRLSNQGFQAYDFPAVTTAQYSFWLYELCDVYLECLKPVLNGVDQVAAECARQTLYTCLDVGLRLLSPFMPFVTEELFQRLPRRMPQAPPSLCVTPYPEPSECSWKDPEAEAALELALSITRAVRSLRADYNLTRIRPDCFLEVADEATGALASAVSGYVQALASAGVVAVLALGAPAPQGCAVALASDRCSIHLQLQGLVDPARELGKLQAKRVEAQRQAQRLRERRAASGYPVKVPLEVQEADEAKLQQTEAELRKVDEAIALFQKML
UniProt O75691: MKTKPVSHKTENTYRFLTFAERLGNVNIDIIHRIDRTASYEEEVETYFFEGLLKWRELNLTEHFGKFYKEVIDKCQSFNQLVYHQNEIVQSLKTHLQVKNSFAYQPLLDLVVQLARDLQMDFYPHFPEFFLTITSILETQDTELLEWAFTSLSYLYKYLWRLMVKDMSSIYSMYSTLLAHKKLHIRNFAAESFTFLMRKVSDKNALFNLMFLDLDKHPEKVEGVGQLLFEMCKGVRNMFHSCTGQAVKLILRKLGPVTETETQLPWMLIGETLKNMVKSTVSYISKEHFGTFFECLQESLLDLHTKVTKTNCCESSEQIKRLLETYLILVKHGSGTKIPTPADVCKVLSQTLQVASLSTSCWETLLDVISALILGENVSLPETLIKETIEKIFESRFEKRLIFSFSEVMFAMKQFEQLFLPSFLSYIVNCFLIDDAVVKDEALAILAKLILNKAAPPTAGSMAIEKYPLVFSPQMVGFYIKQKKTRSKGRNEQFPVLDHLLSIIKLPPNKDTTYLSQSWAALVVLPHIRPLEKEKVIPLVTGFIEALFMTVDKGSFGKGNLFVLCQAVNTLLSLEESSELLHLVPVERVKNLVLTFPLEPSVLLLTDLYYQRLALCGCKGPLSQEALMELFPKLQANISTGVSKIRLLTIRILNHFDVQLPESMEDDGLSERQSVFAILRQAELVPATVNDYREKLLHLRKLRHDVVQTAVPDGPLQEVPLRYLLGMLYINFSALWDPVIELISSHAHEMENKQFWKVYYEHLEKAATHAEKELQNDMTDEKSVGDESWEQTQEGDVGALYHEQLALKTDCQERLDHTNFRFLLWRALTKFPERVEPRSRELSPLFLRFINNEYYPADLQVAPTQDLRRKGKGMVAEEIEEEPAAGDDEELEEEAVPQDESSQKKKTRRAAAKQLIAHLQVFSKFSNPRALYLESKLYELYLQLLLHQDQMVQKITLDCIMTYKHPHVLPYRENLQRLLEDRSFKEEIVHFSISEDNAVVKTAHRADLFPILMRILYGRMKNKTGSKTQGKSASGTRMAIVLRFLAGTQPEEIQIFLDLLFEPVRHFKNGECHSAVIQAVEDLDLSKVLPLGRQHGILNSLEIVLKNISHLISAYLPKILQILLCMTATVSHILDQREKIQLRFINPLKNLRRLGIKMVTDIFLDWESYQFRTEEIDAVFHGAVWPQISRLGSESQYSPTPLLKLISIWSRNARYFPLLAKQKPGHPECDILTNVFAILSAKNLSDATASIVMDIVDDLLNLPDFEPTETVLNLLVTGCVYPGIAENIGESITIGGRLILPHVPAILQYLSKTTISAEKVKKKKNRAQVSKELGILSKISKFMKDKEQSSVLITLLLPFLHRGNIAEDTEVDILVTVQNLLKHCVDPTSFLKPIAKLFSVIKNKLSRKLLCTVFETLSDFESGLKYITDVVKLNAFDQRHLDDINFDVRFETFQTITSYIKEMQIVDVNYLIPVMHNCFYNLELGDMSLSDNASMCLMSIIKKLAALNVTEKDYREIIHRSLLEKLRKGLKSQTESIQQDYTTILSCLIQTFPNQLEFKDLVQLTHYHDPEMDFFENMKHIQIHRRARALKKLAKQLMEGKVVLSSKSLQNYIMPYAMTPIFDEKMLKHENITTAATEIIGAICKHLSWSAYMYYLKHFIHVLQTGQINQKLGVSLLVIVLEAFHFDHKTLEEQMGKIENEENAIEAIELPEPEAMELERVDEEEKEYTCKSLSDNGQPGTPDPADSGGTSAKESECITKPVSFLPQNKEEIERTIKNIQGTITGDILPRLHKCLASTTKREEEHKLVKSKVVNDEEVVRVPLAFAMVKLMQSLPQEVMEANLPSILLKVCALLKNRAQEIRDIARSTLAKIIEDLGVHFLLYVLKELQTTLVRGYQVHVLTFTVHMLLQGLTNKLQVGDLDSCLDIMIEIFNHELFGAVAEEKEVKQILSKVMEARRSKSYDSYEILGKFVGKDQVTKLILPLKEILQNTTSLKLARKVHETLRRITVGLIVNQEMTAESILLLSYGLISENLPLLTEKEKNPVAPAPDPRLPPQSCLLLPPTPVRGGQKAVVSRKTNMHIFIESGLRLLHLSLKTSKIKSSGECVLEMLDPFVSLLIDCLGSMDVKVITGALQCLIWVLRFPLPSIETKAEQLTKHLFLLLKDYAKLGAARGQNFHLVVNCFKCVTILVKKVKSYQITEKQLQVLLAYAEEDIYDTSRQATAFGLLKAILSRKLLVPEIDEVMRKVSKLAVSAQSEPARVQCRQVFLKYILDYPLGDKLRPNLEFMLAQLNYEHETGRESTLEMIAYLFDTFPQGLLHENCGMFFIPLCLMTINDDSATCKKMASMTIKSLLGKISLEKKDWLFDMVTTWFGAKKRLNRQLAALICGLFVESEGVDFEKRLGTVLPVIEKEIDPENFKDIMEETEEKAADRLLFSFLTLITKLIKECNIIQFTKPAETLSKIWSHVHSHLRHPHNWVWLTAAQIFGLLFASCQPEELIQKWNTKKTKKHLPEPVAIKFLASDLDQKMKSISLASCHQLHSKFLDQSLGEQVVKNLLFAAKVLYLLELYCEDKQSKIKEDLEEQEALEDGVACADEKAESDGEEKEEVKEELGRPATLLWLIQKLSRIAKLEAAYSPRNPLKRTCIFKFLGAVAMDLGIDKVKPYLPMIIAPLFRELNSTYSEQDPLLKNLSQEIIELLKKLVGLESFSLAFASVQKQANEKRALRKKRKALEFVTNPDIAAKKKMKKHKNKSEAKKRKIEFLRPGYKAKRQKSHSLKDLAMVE
UniProt Q9Y6W5, whole entry: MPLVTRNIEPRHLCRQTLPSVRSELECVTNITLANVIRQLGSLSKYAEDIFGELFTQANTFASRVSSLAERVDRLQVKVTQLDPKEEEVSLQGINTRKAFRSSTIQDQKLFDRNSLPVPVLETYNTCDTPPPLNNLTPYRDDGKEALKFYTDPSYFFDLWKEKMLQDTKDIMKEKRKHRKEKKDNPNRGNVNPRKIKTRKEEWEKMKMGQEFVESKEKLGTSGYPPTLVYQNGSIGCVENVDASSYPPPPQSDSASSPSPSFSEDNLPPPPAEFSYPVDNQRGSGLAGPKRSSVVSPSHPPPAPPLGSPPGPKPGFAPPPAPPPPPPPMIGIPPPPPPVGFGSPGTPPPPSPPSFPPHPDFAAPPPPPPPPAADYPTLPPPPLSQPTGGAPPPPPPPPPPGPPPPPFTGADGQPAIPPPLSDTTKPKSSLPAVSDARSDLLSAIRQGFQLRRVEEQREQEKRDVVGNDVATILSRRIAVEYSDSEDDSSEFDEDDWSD
UniProt Q9NP79: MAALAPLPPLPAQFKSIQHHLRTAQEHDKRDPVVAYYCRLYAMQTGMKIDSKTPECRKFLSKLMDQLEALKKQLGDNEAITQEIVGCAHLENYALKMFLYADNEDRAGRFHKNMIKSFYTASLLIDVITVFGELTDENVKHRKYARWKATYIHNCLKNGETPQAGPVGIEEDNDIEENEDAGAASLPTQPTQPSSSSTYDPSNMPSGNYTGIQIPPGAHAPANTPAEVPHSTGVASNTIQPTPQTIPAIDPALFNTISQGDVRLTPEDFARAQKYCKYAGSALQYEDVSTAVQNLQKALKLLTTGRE
UniProt Q9P253: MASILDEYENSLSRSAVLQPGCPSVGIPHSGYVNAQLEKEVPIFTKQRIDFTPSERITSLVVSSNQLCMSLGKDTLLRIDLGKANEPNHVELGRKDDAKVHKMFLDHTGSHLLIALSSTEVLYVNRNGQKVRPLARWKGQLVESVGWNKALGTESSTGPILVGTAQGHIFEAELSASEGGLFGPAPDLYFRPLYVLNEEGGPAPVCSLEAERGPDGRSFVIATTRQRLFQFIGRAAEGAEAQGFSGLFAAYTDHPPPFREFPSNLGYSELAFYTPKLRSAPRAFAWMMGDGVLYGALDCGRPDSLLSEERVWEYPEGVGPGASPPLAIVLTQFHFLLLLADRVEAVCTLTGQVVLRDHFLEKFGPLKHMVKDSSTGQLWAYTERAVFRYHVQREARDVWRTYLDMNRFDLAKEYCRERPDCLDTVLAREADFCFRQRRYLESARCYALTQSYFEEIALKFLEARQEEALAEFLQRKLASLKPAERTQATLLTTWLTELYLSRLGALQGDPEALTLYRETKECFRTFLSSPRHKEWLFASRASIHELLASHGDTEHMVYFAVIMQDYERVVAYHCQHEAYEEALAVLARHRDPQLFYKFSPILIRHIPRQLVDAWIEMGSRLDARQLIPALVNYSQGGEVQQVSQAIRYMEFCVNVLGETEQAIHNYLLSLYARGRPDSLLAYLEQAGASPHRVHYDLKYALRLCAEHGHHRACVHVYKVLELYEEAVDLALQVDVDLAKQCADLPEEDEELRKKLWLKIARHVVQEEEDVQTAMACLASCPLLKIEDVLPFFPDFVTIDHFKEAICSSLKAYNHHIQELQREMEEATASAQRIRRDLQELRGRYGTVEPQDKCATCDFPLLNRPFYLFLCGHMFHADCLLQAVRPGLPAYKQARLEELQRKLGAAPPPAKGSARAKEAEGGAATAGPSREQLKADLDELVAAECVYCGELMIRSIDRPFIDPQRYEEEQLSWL
UniProt Q9UK41: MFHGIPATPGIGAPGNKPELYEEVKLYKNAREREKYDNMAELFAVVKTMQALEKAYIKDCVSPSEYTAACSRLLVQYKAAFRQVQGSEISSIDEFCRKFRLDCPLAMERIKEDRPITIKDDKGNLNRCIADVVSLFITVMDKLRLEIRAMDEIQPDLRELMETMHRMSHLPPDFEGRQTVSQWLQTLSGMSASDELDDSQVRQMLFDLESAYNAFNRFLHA

Target | probe-labelled cysteine peptide fold change (10 µM) | probe-labelled cysteine peptide fold change (50 µM)
VPS35_Q96QK1_653_TQCALAASK (UniProt Q96QK1) | -0.0881 | -0.131
VCP_P55072_77_EAVCIVLSDDTCSDEK (UniProt P55072) | 0.133 | -0.0535
UTP15_Q8TED0_385_VLDPTCTIK (UniProt Q8TED0) | 0.0663 | -0.0897
VPS13B_Q7Z7G8_3937_VACDVEVDGVR (UniProt Q7Z7G8) | -0.368 | -0.626
VARS_P26640_479_LVNWSCTLNSAISDIEVDKK (UniProt P26640) | 0.122 | -0.0535
VPS8_Q8N3P4_974_AMDHIEELVSLKPCK (UniProt Q8N3P4) | 0.0546 | -0.497
VPS29_Q9UBQ0_15_CNSLPAK (UniProt Q9UBQ0) | -0.00536 | 0.0756
USP9Y_O00507_1238_YMPDICVIR (UniProt O00507) | -0.135 | -0.581
USP9X_Q93008_842_ASYDTLCVLDGDKDSVNCAR (UniProt Q93008) | 0.0562 | -0.694
VWA8_A3KMH1_858_APTNVTCILK (UniProt A3KMH1) | 0.00789 | 0.186
VPS53_Q5VIR6_424_CFEPHLYVYIESQDK (UniProt Q5VIR6) | 0.121 | 0.274
VARS_P26640_1185_CSIHLQLQGLVDPARELGK (UniProt P26640) | 0.0564 | -0.00379
UTP20_O75691_295_EHFGTFFECLQESLLDLHTK (UniProt O75691) | 0.0442 | 0.268
WASF2_Q9Y6W5_27_SELECVTNITLANVIR (UniProt Q9Y6W5) | -0.0434 | 0.208
VCP_P55072_572_QAAPCVLFFDELDSIAK (UniProt P55072) | 0.0188 | -0.0785
VIM_P08670_328_QVQSLTCEVDALK (UniProt P08670) | -0.154 | -0.0332
VAT1_Q99536_50_CLVLTGFGGYDK (UniProt Q99536) | 0.175 | -0.0328
UTP20_O75691_2571_VLYLLELYCEDK (UniProt O75691) | 0.0446 | 0.184
VCP_P55072_209_EDEEESLNEVGYDDIGGCR (UniProt P55072) | -0.0294 | -0.107
VPS16_Q9H269_36_KYELYSMDWDLKEELRDCLVAAAPYGGPIALLR (UniProt Q9H269) | 0.0814 | -0.216
UTRN_P46939_3097_HFNYDVCQSCFFSGR (UniProt P46939) | 0.0196 | -0.105

Some of the entries so far, as tab-separated lines.
Target	probe-labelled cysteine peptide fold change (10 µM)	probe-labelled cysteine peptide fold change (50 µM)
VPS35_Q96QK1_653_TQCALAASK (UniProt Q96QK1)	-0.0881	-0.131
UTP15_Q8TED0_385_VLDPTCTIK (UniProt Q8TED0)	0.0663	-0.0897
VARS_P26640_479_LVNWSCTLNSAISDIEVDKK (UniProt P26640)	0.122	-0.0535
VPS8_Q8N3P4_974_AMDHIEELVSLKPCK (UniProt Q8N3P4)	0.0546	-0.497
VPS29_Q9UBQ0_15_CNSLPAK (UniProt Q9UBQ0)	-0.00536	0.0756
USP9X_Q93008_842_ASYDTLCVLDGDKDSVNCAR (UniProt Q93008)	0.0562	-0.694
VPS53_Q5VIR6_424_CFEPHLYVYIESQDK (UniProt Q5VIR6)	0.121	0.274
VARS_P26640_1185_CSIHLQLQGLVDPARELGK (UniProt P26640)	0.0564	-0.00379
WASF2_Q9Y6W5_27_SELECVTNITLANVIR (UniProt Q9Y6W5)	-0.0434	0.208
VCP_P55072_572_QAAPCVLFFDELDSIAK (UniProt P55072)	0.0188	-0.0785
UTP20_O75691_2571_VLYLLELYCEDK (UniProt O75691)	0.0446	0.184

Next results follow.

Target | probe-labelled cysteine peptide fold change (10 µM) | probe-labelled cysteine peptide fold change (50 µM)
VAC14_Q08AM6_79_KGGLIGLAACSIALGK (UniProt Q08AM6) | 0.0198 | 0.163
VIRMA_Q69YN4_1008_CTLTLLK (UniProt Q69YN4) | 0.0155 | 0.295
VPS13C_Q709C8_1372_ILTENLCEGTEDLDK (UniProt Q709C8) | 0.0329 | -0.0418
VPS8_Q8N3P4_925_IIDCYLRDPLREEEVFNYIHNILSIPGHSAEEK (UniProt Q8N3P4) | 0.153 | -0.0136
UTP23_Q9BRU9_103_NAVSGSECLLSMVEEGNPHHYFVATQDQNLSVK (UniProt Q9BRU9) | -0.048 | -0.189
VPS41_P49754_638_DSTHCPLEK (UniProt P49754) | -0.172 | -0.152
VPS35_Q96QK1_673_AVSTCAHLFWSGR (UniProt Q96QK1) | -0.166 | 0.0955
VTA1_Q9NP79_38_RDPVVAYYCR (UniProt Q9NP79) | 0.198 | 0.262
WAPL_Q7Z5K2_719_TLDDSQHHQNLSLCTAALMYILSR (UniProt Q7Z5K2) | -0.181 | 0.025
VPS11_Q9H270_231_VELDTHGCGLR (UniProt Q9H270) | 0.123 | 0.07
VARS_P26640_1185_CSIHLQLQGLVDPAR (UniProt P26640) | -0.0104 | -0.028
VPS18_Q9P253_421_ERPDCLDTVLAR (UniProt Q9P253) | -0.184 | -0.179
VPS28_Q9UK41_128_CIADVVSLFITVMDK (UniProt Q9UK41) | -0.0247 | -0.327
VPS13C_Q709C8_1613_ITAELNAFNVFVCDQK (UniProt Q709C8) | -0.186 | -0.241
UTP20_O75691_242_NMFHSCTGQAVK (UniProt O75691) | -0.122 | 0.227
VCP_P55072_522_GVLFYGPPGCGK (UniProt P55072) | -0.0375 | -0.00445
WARS_P23381_309_DRTDIQCLIPCAIDQDPYFR (UniProt P23381) | 0.181 | 0.228
VARS_P26640_927_FGLCAYMSQGR (UniProt P26640) | -0.147 | -0.243
VPS18_Q9P253_780_HVVQEEEDVQTAMACLASCPLLK (UniProt Q9P253) | 0.0539 | -0.256
USP9Y_O00507_541_ILDYSCSQDR (UniProt O00507) | 0.0644 | 0.343

Reference: the supplement of paper PMC12067093, “Discovery and optimisation of a covalent ligand for TRIM25 and its application to targeted protein ubiquitination” (Chemical Science, 2025)
